The data set is described as follows: Sensory evaluation of flavor (taste test) by 10 panelists. To be noted: 5 mg sample ingested; for Results of taste test: total evaluation: delicious (5 points)-brackish (1 point); for Results of taste test, five tastes: bitter taste / Results of taste test, five tastes: saltiness / Results of taste test, five tastes: sour taste / Results of taste test, five tastes: sweetness / Results of taste test, five tastes: umami taste: strong (5 points)-weak (1 point); for Results of taste test: acridity / Results of taste test: oil odor: weak (5 points)-strong (1 point). The procedure: A sensory evaluation of the flavor of compounds (I) of the present invention of Examples 1-3, trilinolein of Comparative Example 1 and HYA of Comparative Example 2 was performed by 10 panelists (hereinafter to be referred to as taste test). The panelists ingested 5 mg of a sample (sample name was kept secret to the panelists during the test), evaluated five tastes (umami taste, bitter taste, sour taste, saltiness, sweetness) respectively for the strength, acridity and oil odor, and made total evaluation.
Each evaluation was marked in the following 5 grades.
Five tastes (umami taste, bitter taste, sour taste, saltiness, sweetness):
Strong (5 points)-weak (1 point)
Acridity: weak (5 points)-strong (1 point)
Oil odor: weak (5 points)-strong (1 point)
Total evaluation: delicious (5 points)-brackish (1 point)
It was also shown that acridity was reduced by converting HYA to triglyceride.

The values that follow come from patent publication US10287234B2, “Triglyceride and use thereof” (NITTO PHARMACEUTICAL INDUSTRIES, LTD., priority 2015, dated 2019).

Consider `CCCCC/C=C\C/C=C\CCCCCCCC(=O)OCC(COC(=O)CCCCCCCCC(O)C/C=C\CCCCC)OC(=O)CCCCCCC/C=C\C/C=C\CCCCC` (stereo not drawn) [Ex. 1, Di(cis, cis-9,12-octadecadienoyl)(10-hydroxy-cis-12-octadecenoyl)glycerol], for which the “Results of taste test: total evaluation” value turned out to be 4 points; the “Results of taste test, five tastes: bitter taste” value (from here on “Results … bitter taste”) worked out at 1 points; the “Results of taste test, five tastes: saltiness” value (“Results … saltiness” for short) worked out at 1.5 points; the “Results of taste test, five tastes: sour taste” value (from here on “Results … sour taste”) came to 1 points. Also, the “Results of taste test, five tastes: sweetness” value (shortened to “Results … sweetness”) was 3.5 points; the “Results of taste test, five tastes: umami taste” value (shortened to “Results … umami taste”) was 3.5 points; the “Results of taste test: acridity” value came to 5 points; the “Results of taste test: oil odor” value was 4 points.
On to `CCCCC/C=C\C/C=C\CCCCCCCC(=O)OC(COC(=O)CCCCCCCCC(O)C/C=C\CCCCC)COC(=O)CCCCCCCCC(O)C/C=C\CCCCC` (stereo not drawn) [Ex. 2, Di(10-hydroxy-cis-12-octadecenoyl)(cis, cis-9,12-octadecadienoyl)glycerol], for which the “Results of taste test: total evaluation” value is reported as 4 points; the “Results … bitter taste” value was found to be 1 points; the “Results … saltiness” value stood at 1 points; the “Results … sour taste” value came to 1 points. Also, the “Results … sweetness” value is 4 points; the “Results … umami taste” value is on record as 4 points; the “Results of taste test: acridity” value turned out to be 5 points; the “Results of taste test: oil odor” value was 4.5 points.
Turning to `CCCCC/C=C\C/C=C\CCCCCCCC(=O)OCC(COC(=O)CCCCCCC/C=C\C/C=C\CCCCC)OC(=O)CCCCCCC/C=C\C/C=C\CCCCC` [compound 1, Trilinolein, reference compound], the “Results of taste test: total evaluation” value worked out at 3 points; the “Results … bitter taste” value is recorded as 1 points; the “Results … saltiness” value is listed as 1 points; the “Results … sour taste” value is reported as 1 points. The “Results … sweetness” value turned out to be 2 points; the “Results … umami taste” value worked out at 2.5 points; the “Results of taste test: acridity” value came out at 4 points; the “Results of taste test: oil odor” value stood at 2 points.
As to `CCCCC/C=C\CC(O)CCCCCCCCC(=O)O` (stereo not drawn) [compound 2, 10-Hydroxy-cis-12-octadecenoic Acid, reference compound], the “Results of taste test: total evaluation” value is 1 points; the “Results … bitter taste” value was determined as 3.5 points; the “Results … saltiness” value was 1 points; the “Results … sour taste” value amounted to 1 points. Also, the “Results … sweetness” value is reported as 1 points; the “Results … umami taste” value was 1.5 points; the “Results of taste test: acridity” value is 1 points; the “Results of taste test: oil odor” value amounted to 3.5 points.
Turning to “Tri(10-hydroxy-cis-12-octadecenoyl)glycerol [Ex. 3]”, the “Results of taste test: total evaluation” value is listed as 5 points; the “Results … bitter taste” value was found to be 1 points; the “Results … saltiness” value turned out to be 1 points; the “Results … sour taste” value worked out at 1 points. Also, the “Results … sweetness” value is listed as 4 points; the “Results … umami taste” value is listed as 4 points; the “Results of taste test: acridity” value is given as 5 points; the “Results of taste test: oil odor” value is reported as 4.5 points.
